According to patent publication US20250243488A1, “METHODS OF MODULATING PROGRANULIN EXPRESSION USING ANTISENSE OLIGONUCLEOTIDES TARGETING REGULATORY RNAS” (Camp4 Therapeutics Corporation, priority 2022, published 2025):
Some of these results come from one statement about several compounds together. Oligonucleotides are written 5' to 3', each unit as a sugar letter and its base; * is a phosphorothioate linkage, no mark a phosphodiester; rarer units and linkages stand in square brackets, end groups in braces. Plain capitals give the bases only. e = 2'-O-(2-methoxyethyl) (MOE); l = locked nucleic acid (LNA); [5mC] = 5-methylcytosine

Test system: GRN mRNA
Assay: GRN mRNA qPCR in SK-N-AS cells transfected with ASOs
Type: cell-based, human
Procedure: The best ASOs based on increased GRN mRNA fold-change were selected for further characterization in dose titration studies. Briefly, human neuroblastoma SK-N-AS cells were transfected with 20 to 160 nM of ASOs CO-3423, CO-3431, CO-3463, and CO-3503. A steric non-targeting control ASO (sNTC) was used as a control. Cells were collected for mRNA analysis after 48 hours and GRN mRNA quantified by qPCR. Housekeeping genes for normalization were GAPDH and PPIA, and mRNA fold change (FC) was normalized to sNTC.
36 additional ASOs were designed with different modifications and base walking around selected ASOs. The effect of increasing doses of these ASOs was assessed in the human neuroblastoma cell line SK-N-AS following transfection. Relative GRN mRNA levels in SK-N-AS cells after treatment was assessed 48-hours post-transfection, and data from exemplary ASOs is shown in FIGS. 5A and 5B.
Additional chemical modifications, including LNA, modifications were made to CO-3423. SK-N-AS cells were transfected with increasing concentrations of the LNA/PS modified ASOs and GRN mRNA quantified by qPCR. ASOs including different LNA modifications of CO-3423 had similar efficacy (i.e, similar increased GRN mRNA expression). GRN mRNA was normalized to the average fold-change of cells treated with two steric non-targeting control ASOs (CO-3772 and CO-1589 (sNTC1)).
The effect of ASO length on GRN gene expression modulation was also investigated. SK-N-AS cells were transfected with increasing concentrations of the longer ASOs and GRN mRNA quantified by qPCR. Increasing the length of CO-3423 increased the potency of the ASO, as shown in Table 4. mRNA was normalized to the average fold change of cells treated with two steric non-targeting control ASOs (CO-3772 and CO-1589 (sNTC1)).
To determine whether variations in the PO/PS internucleotide bond linkages impacted the ability of CO-3423 and CO-3431 to modulate gene expression, several modified ASOs based on these parent ASOs were prepared. SK-N-AS cells were transfected with increasing concentrations of the mixed PO/PS bond ASOs described in Tables 5 and 6, and GRN mRNA quantified by qPCR.
GRN mRNA fold-change after treatment with mixed PO/PS bond versions of CO-3423 is shown in Table 5. mRNA was normalized to the average fold change of cells treated with steric nontargeting controls (CO-3772, CO-1589 (sNTC1), and CO-1929 (sNTC3)).
GRN mRNA fold-change after treatment with mixed PO/PS bond versions of CO-3431 is shown in Table 6. mRNA was normalized as described above.
To further assess the effect of additional modifications on the ability of CO-3423 parent ASO to modulate GRN gene expression, additional LNA tiling and PO bond modifications were incorporated to CO-3423. SK-N-AS cells were transfected with increasing concentrations of the modified ASOs and GRN mRNA quantified by qPCR. CO-3423 was used for comparison. GRN mRNA was normalized to the average fold-change of cells treated with a steric non-targeting control ASO, CO-1589 (sNTC1).
To further assess the effect of modifications on the ability of CO-3463 parent ASO to modulate GRN gene expression, ASOs based on this ASOS incorporating additional LNA modifications were prepared and compared to […]. SK-N-AS cells were transfected with increasing concentrations of the ASOs and GRN mRNA quantified by qPCR. GRN mRNA was normalized to the average fold-change of cells treated with a steric non-targeting control ASO, CO-1589 (sNTC1).
68 additional ASOs were designed to target intergenic enhancers (eRNA). 48 hours post-transfection, the cells were collected for GRN mRNA analysis using qPCR. CO-1589, a steric nontargeting control ASO, was used as a control. GRN mRNA was normalized to cells treated with CO-1589.
The best hits from these ASOs were tested in a dose escalation study. Cells were incubated for 48 hours. Subsequently, the cells were collected for mRNA quantification via RT-qPCR. […]

[1] = SK-N-AS, increasing concentrations (Table 13)
[2] = SK-N-AS, 120 nM, 48 hours (Table 11)
[3] = SK-N-AS dose escalation 3.75 nM to 120 nM (Table 10)

Substance | GRN mRNA upregulation [1] | GRN mRNA upregulation [2] | further results
CO-6420: ASO based on parent ASOs CO-4363 and CO-4364 (eG*eG*lA*e[5mC]*eT*lT*eG*eG*lG*eA*eG*lT*eG*eG*lT*eG*eA*l[5mC]*eT*eG*lA*eA*e[5mC]) | greater than 2 fold |  | 
CO-6411: ASO based on parent ASO CO-3462 (antisense eT*eA*eGeGeA*eG*eA*eA*eT*e[5mC]*eG*e[5mC]*eT*eT*eT*eGeGeG*eA*eG) |  | greater than 1.3 fold | 
CO-4619: ASO designed to target intergenic enhancers (eRNA) (antisense eT*eG*eA*eT*eA*eT*eA*eG*eA*eG*eA*eT*e[5mC]*eT*eG*e[5mC]*eA*eG*e[5mC]*e[5mC]) |  |  | GRN mRNA upregulation [3]: greater than 1.3 fold
CO-6417: ASO based on parent ASOs CO-4363 and CO-4364 (eG*eG*eA*e[5mC]*lT*eT*eG*eG*lG*eA*eG*eT*lG*eG*eT*eG*lA*e[5mC]*eT*eG*eA) | greater than 2 fold |  | 
CO-6445: ASO designed to target an intragenic enhancer RNA (eRNA) (eG*eT*eG*eG*eG*eA*eA*eG*eT*eA*eT*eG*eG*e[5mC]*eT*eG*e[5mC]*eT*eG*e[5mC]) |  | greater than 1.3 fold | 
CO-6416: ASO based on parent ASOs CO-4363 and CO-4364 (eG*eG*lA*e[5mC]*eT*lT*eG*eG*lG*eA*eG*lT*eG*eG*lT*eG*eA*l[5mC]*eT*eG*eA) | greater than 2 fold |  | 
CO-6423: ASO based on parent ASOs CO-4363 and CO-4364 (eG*eG*eA*e[5mC]*lT*eT*eG*eG*eG*lA*eG*eT*eG*eG*lT*eG*eA*e[5mC]*eT*lG*eA*eA*e[5mC]) | greater than 2 fold |  | 
CO-4606: ASO designed to target intergenic enhancers (eRNA) (antisense eA*e[5mC]*eG*eT*eG*eA*eA*eG*eA*eG*e[5mC]*e[5mC]*eG*eG*eA*eG*eA*eT*eT*e[5mC]) |  |  | GRN mRNA upregulation [3]: greater than 1.3 fold
CO-6424: ASO based on parent ASOs CO-4363 and CO-4364 (eG*eG*eA*l[5mC]*eT*eT*eG*eG*lG*eA*eG*eT*eG*lG*eT*eG*eA*e[5mC]*lT*eG*eA*eA*e[5mC]) | greater than 2 fold |  | 
CO-6452: ASO designed to target an intragenic enhancer RNA (eRNA) (eT*eG*eG*e[5mC]*eT*eG*e[5mC]*e[5mC]*e[5mC]*e[5mC]*eT*e[5mC]*eA*e[5mC]*eG*eT*eT*eT*eG*e[5mC]) |  | greater than 1.3 fold | 
